# Results as given in PubChem BioAssay.
# The entries are a selection whose mix differs from that of the whole data set. The source made the active and inactive calls. How the calls were made is not given here.
# Test system: Aerobactin synthetase IucA (Klebsiella pneumoniae, hypervirulent)
# Experiment: biochemical IucA inhibition screen of LOPAC library by absorbance (AID 1346212);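 further: 100% = no compound wells and 0% = no enzyme wells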
# Conditions: IucA enzyme assay, absorbance (OD) readout; stronger effect = lower value;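 tested at 8 µM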
smiles,measurement,value
CN1C2CCC1CC(OC(=O)C(O)c1ccccc1)C2 (stereo unspecified),remaining activity,inactive: 94.1%
